From publication doi:10.1101/2024.02.24.581873
The exact form of at least one protein or probe is not confirmed. For some of these results: A negative result means that nothing was seen under these conditions. For some of these results: Tags and fusion partners may be left off the protein sequences shown.

Tests used:
Test in all cases: filter binding
[1] = test system: MsTLP (Methanobrevibacter smithii); settings: 10 mM Mg2+, no detectable binding up to 10 uM; 5'-triphosphate
[2] = biological target: T1, ScThg1 (Saccharomyces cerevisiae) (UniProt P53215); settings: 10 mM Mg2+, linear non-specific binding; 5'-triphosphate
T1 sequence (looked up, limits assumed): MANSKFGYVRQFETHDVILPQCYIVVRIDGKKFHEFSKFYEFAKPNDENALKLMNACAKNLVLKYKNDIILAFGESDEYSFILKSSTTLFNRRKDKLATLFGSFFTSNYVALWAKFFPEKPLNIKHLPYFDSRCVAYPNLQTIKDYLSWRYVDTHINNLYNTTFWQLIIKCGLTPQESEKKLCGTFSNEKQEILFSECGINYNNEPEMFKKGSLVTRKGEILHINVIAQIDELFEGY

[3] = test system: DdiTLP4 (Dictyostelium discoideum); settings: 10 mM Mg2+, no detectable binding up to 10 uM; 5'-triphosphate
[4] = test system: BtTLP (Bacillus thuringiensis); settings: 10 mM Mg2+, no detectable binding up to 10 uM; 5'-triphosphate

## GGGAGACCACAACGGUUUCCCUCUAG [26-mer RNA substrate]
[1]
  binding result: no binding
[2]
  Kd: > 10 µM
[3]
  binding result: no binding
[4]
  binding result: no binding
